15 targets from the supplement of paper PMC10849652 can be followed below.

Amino acid sequences for entries named in this document (tags omitted). A change or cut given only in a name is not applied to a line headed by its entry.
UniProt Q1KMD3: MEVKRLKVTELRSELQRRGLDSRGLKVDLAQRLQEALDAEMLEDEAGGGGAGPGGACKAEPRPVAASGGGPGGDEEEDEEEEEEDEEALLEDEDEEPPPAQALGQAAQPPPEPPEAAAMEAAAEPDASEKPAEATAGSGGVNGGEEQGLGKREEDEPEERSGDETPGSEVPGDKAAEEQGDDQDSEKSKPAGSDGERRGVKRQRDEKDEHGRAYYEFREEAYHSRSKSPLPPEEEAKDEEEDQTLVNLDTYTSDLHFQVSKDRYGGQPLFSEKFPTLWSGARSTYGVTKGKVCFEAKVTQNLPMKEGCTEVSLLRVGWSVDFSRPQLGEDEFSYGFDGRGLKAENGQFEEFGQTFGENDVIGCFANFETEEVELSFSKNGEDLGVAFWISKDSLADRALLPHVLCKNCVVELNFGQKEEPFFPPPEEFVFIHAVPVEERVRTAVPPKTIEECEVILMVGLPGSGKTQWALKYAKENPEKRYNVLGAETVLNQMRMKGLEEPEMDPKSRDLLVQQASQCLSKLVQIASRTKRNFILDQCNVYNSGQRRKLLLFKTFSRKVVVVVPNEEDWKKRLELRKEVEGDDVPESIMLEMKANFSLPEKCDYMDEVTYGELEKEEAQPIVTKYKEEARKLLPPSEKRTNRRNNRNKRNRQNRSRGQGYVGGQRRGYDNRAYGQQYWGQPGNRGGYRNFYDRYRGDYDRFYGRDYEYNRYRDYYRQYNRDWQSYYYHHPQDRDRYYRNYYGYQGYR
UniProt Q96JB3: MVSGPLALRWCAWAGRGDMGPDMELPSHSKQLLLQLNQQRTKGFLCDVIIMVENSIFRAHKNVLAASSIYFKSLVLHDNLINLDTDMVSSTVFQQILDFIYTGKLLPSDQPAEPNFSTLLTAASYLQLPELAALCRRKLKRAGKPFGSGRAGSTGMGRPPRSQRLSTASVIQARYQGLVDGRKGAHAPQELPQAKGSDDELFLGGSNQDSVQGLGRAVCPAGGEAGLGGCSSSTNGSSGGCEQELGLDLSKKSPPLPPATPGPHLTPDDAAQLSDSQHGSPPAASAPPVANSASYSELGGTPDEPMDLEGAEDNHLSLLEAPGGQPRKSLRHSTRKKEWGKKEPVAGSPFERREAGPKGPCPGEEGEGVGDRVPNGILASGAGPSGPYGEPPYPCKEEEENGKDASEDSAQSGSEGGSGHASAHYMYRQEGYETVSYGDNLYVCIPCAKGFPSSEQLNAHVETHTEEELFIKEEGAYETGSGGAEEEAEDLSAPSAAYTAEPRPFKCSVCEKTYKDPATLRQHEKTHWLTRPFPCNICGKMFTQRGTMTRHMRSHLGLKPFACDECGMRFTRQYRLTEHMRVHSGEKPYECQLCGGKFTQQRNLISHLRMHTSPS
UniProt P23327: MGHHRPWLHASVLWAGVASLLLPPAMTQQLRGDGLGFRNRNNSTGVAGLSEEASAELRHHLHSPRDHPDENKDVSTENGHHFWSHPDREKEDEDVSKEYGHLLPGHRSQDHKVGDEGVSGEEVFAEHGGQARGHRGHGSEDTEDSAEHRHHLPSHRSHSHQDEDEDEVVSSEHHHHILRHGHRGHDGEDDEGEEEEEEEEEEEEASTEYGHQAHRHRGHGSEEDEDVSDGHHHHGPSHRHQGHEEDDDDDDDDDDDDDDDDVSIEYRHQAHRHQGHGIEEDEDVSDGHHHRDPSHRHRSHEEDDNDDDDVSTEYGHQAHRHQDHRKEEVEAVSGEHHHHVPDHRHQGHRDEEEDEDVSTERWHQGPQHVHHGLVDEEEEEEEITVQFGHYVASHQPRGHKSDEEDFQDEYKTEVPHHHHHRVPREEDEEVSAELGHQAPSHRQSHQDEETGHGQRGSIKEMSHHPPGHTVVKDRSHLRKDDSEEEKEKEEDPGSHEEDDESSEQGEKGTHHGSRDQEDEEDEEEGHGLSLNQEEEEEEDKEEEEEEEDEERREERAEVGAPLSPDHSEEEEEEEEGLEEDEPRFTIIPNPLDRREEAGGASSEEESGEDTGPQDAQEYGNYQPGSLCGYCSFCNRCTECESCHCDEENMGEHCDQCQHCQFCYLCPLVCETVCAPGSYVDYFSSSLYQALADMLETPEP
UniProt P04035: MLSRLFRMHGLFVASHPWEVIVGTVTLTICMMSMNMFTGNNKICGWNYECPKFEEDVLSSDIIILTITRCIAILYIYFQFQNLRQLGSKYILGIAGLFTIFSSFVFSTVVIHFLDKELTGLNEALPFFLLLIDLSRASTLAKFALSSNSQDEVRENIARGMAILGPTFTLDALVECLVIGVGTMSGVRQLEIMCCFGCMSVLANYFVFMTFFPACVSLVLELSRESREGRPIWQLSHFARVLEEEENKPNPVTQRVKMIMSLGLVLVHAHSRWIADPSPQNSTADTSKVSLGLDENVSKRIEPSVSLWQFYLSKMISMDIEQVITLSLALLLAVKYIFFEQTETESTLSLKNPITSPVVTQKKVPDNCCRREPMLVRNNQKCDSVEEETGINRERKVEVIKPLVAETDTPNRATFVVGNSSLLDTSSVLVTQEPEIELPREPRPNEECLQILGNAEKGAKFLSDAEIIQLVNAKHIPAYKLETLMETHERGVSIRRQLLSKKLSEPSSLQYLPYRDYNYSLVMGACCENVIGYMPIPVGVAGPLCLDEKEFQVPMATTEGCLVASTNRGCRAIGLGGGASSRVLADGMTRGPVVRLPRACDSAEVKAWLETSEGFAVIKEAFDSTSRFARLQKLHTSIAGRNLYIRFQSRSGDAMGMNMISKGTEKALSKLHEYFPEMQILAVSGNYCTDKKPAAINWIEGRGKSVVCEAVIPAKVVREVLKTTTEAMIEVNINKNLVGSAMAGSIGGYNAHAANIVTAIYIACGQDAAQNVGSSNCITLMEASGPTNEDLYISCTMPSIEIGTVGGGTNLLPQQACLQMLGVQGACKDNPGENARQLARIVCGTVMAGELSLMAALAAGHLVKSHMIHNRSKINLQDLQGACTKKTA
UniProt P10809, whole entry, looked up: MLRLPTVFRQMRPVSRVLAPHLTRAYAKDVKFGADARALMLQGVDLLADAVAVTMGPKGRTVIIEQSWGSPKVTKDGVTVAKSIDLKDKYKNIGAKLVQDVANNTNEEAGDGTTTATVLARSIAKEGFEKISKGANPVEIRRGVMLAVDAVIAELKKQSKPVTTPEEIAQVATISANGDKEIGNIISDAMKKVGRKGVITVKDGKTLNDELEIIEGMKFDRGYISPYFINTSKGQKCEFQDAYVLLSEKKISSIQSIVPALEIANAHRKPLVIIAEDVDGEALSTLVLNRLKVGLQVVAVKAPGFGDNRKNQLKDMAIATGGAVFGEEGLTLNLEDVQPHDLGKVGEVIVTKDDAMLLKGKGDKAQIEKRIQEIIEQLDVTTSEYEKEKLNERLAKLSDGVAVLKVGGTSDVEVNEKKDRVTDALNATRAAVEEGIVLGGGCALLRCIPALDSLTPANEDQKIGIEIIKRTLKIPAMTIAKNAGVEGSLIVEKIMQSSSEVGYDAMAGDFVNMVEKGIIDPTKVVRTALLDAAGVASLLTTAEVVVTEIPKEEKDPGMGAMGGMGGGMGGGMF
UniProt Q8NBQ5: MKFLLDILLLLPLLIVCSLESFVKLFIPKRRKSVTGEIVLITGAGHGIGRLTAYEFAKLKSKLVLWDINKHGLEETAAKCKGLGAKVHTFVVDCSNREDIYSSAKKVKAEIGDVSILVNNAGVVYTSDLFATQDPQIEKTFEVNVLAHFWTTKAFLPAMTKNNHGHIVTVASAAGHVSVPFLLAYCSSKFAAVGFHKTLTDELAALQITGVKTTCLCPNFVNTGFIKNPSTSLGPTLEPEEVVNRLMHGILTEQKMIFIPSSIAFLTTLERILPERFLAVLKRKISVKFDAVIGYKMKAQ
UniProt P17096: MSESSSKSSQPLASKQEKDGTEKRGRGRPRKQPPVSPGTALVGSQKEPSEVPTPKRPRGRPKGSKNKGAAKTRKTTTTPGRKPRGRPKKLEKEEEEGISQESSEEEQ
UniProt Q00839, whole entry, looked up: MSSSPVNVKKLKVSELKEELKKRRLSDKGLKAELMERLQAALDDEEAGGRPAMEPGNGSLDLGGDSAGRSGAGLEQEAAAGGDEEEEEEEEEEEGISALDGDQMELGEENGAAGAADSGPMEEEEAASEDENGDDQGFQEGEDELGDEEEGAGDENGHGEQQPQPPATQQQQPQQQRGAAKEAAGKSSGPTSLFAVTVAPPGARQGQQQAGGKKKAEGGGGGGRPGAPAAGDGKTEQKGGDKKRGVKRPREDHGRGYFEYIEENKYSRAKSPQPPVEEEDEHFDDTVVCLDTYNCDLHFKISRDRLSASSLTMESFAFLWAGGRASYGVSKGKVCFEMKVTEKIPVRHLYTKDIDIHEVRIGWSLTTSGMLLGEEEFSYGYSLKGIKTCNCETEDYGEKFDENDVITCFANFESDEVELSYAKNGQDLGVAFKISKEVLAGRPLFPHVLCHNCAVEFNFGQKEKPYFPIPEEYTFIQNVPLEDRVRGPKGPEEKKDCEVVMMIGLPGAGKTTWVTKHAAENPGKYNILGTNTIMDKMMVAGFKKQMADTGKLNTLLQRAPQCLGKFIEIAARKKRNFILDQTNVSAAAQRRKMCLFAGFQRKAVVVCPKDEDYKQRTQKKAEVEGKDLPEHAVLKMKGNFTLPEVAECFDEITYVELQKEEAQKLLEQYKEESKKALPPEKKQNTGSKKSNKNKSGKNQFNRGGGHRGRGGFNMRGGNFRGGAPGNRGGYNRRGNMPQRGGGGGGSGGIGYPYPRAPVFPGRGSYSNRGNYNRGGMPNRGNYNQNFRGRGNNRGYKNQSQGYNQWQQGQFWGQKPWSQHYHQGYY
UniProt Q53GQ0: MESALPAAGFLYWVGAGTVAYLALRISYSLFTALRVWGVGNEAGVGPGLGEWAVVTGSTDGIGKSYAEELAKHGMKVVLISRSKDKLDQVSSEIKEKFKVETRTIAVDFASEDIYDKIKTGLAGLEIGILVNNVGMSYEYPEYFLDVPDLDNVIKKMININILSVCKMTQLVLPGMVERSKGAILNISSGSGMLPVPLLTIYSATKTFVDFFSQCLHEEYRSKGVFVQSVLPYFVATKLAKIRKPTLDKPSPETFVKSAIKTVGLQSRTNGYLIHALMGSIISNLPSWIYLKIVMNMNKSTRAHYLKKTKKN
UniProt Q0VDF9: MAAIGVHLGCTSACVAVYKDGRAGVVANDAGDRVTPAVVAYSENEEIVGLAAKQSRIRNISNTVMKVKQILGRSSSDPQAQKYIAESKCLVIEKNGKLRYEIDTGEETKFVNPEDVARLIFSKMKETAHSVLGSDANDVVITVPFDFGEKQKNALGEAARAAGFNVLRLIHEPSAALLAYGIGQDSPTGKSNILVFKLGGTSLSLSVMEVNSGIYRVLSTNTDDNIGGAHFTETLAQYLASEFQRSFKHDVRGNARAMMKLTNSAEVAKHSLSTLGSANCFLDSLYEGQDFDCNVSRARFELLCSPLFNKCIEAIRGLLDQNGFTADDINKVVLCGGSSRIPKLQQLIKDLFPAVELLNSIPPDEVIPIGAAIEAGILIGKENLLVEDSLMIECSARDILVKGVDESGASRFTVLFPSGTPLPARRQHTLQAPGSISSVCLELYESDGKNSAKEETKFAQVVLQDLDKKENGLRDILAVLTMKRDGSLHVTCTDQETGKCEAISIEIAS
UniProt O75330: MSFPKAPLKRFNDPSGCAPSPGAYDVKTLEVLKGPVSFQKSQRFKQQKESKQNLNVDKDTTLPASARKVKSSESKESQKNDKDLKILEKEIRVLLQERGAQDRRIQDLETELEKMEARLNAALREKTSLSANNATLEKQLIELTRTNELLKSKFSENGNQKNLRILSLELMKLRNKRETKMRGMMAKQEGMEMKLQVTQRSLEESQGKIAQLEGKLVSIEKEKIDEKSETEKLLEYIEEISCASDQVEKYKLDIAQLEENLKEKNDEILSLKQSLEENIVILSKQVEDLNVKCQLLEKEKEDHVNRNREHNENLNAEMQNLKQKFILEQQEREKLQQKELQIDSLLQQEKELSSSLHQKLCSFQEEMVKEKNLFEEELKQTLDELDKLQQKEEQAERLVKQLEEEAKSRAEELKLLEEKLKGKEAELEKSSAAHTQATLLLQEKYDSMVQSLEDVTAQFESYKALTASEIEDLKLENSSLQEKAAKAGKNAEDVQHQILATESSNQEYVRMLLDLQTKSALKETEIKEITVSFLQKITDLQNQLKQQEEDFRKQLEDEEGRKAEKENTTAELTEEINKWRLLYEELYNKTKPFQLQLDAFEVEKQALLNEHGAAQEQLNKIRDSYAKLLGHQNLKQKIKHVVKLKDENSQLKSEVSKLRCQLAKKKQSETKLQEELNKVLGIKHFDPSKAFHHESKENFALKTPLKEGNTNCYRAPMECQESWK

This is one part of the list.

Experiment in all cases: log2 fold change, soluble protein after heating vs DMSO (PISA); higher = thermal stabilisation; K562 cells, 10 uM, 30 min; active = over 0.2 and 3.5 SD of the protein, either way, in both replicates (recomputed)
Compound in one assay: Cc1ccc(NC(=O)c2ccc(CN3CC[C@H](N(C)C)C3)c(C(F)(F)F)c2)cc1Nc1nccc(-c2cncnc2)n1 [bafetinib]
The method, boiled down:
(§1)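 K562 cells at 2×10^6 cells/mL were exposed to 10 μM compound for 30 min, then aliquots were heated for 3 min across 48°C-58°C, pooled, and extracted in PBS containing 0.5% NP-40 at 4°C. The supernatant after 21,000xg for 90 min was taken as soluble protein and measured by TMTpro 16plex LC-MS/MS with channel sums equalised. Thermal stability is reported relative to control samples, with values from duplicates. Fold changes are given on a log2 scale.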

Compound in assay [1]: Cc1cccc(CC(=O)N2CCc3c2ccc(-c2cn(C)c4ncnc(N)c24)c3F)n1
The method, boiled down: as §1

Compound in another assay: Cc1cn(-c2cc(NC(=O)c3ccc(C)c(Nc4nccc(-c5cccnc5)n4)c3)cc(C(F)(F)F)c2)cn1 [nilotinib]
The method, boiled down:
as §1

Compound in assay [2]: Cc1nc(Nc2n[nH]c3c2CN(C(=O)N[C@H](CN(C)C)c2ccccc2)C3(C)C)c2sccc2n1
The method, boiled down:
as §1

Compound in a further assay: Cc1nc(Nc2ncc(C(=O)Nc3c(C)cccc3Cl)s2)cc(N2CCN(CCO)CC2)n1 [dasatinib]
The method in brief: as §1

Compound in assay [3]: Cc1ncc(-c2ccnc(Nc3ccc(S(C)(=O)=O)cc3)n2)n1C(C)C
The method, boiled down: as §1

Compound in assay [4]: Cn1cc(-c2ccc3c(c2)CCN3C(=O)Cc2cccc(C(F)(F)F)c2)c2c(N)ncnc21
The method in brief: as §1

Compound in assay [5]: Cn1cc(-c2ccc3nnc(C(F)(F)c4ccc5ncccc5c4)n3n2)cn1
The method in brief: as §1

Compound in a further assay: Cn1cncc1[C@@](N)(c1ccc(Cl)cc1)c1ccc2c(c1)c(-c1cccc(Cl)c1)cc(=O)n2C [tipifarnib]
The method in brief: as §1

Compound in the next assay: FC(F)(F)c1ccc(/C=C/c2nc(COc3ccc(CCCCn4ccnn4)cc3)co2)cc1 [mubritinib]
The method in brief:
as §1

Take HNRNPUL2 (UniProt Q1KMD3): the log2 fold change with bafetinib was inactive: 0; in [1], inactive: -0.083; with nilotinib, inactive: -0.001; in assay [2] it was inactive: 0.033; in the assay with dasatinib, inactive: 0.098; in [3], inactive: 0.097. The log2 fold change in assay [4] was inactive: -0.147; in assay [5] it was inactive: -0.035; with tipifarnib it was inactive: 0.03; with mubritinib it was inactive: -0.137.

Regarding HIC2 (UniProt Q96JB3), the log2 fold change is inactive: 0.065 with bafetinib; inactive: 0.006 in assay [1]; inactive: 0.075 in the assay with nilotinib; active: -0.446 in assay [2]; inactive: 0.071 with dasatinib; inactive: -0.181 in [3]. Moreover, the log2 fold change in [4] is inactive: -0.124; in [5], inactive: -0.032; with tipifarnib, inactive: -0.051; in the assay with mubritinib, inactive: -0.051.

Take HRC (UniProt P23327): the log2 fold change is inactive: -0.098 in the assay with bafetinib; inactive: -0.147 in assay [1]; inactive: 0.01 with nilotinib; inactive: -0.017 in [2]; inactive: 0.055 in the assay with dasatinib; inactive: -0.039 in [3]. Besides, the log2 fold change was inactive: -0.038 in assay [4], inactive: 0.037 in assay [5], inactive: 0.016 in the assay with tipifarnib and inactive: 0.041 with mubritinib.

Regarding HUWE1 (UniProt Q7Z6Z7), the log2 fold change is inactive: 0.006 in the assay with bafetinib; inactive: 0.028 in assay [1]; inactive: -0.024 with nilotinib; inactive: 0.008 in assay [2]; inactive: -0.036 in the assay with dasatinib; inactive: -0.014 in [3]. Further, the log2 fold change in [4] is inactive: -0.002; in [5] it was inactive: -0.015; with tipifarnib it was inactive: -0.081; in the assay with mubritinib, inactive: 0.059.

In the case of HMGCR isoform 3 (UniProt P04035), the log2 fold change with bafetinib was inactive: 0.008; in assay [1], inactive: 0.016; with nilotinib, inactive: -0.241; in assay [2], inactive: 0.015; with dasatinib, inactive: -0.027; in assay [3], inactive: -0.087. The log2 fold change in assay [4] is inactive: -0.023; in [5], inactive: -0.062; with tipifarnib it was inactive: -0.021; with mubritinib, inactive: 0.1.

For HSPD1 (UniProt P10809), the log2 fold change with bafetinib was inactive: -0.069; in assay [1], inactive: -0.032; in the assay with nilotinib it was inactive: -0.002; in [2], inactive: -0.005; in the assay with dasatinib, inactive: 0.034; in assay [3] it was inactive: -0.018. Further, the log2 fold change is inactive: 0.018 in assay [4], inactive: 0.024 in [5], inactive: 0.059 with tipifarnib and inactive: 0.016 with mubritinib.

In the case of HMGN2 (UniProt P05204), the log2 fold change with bafetinib was inactive: -0.013; in [1], inactive: -0.189; with nilotinib, inactive: -0.025; in assay [2], inactive: 0.022; with dasatinib, inactive: 0.053; in assay [3], inactive: 0. Also, the log2 fold change in assay [4] is inactive: -0.025; in [5], inactive: 0.04; with tipifarnib, inactive: 0.079; with mubritinib, inactive: 0.021.

HSD17B11 (UniProt Q8NBQ5): the log2 fold change was inactive: 0.044 with bafetinib; inactive: 0.026 in assay [1]; inactive: 0.005 with nilotinib; inactive: -0.004 in assay [2]; inactive: 0 in the assay with dasatinib; inactive: 0.009 in assay [3]. Besides, the log2 fold change in [4] was inactive: 0.07; in [5] it was inactive: 0.016; with tipifarnib, inactive: -0.004; with mubritinib, inactive: 0.127.

With HMGA1 (UniProt P17096), the log2 fold change with bafetinib was inactive: 0.15; in assay [1], inactive: -0.126; in the assay with nilotinib it was inactive: -0.01; in assay [2], inactive: 0.035; with dasatinib, inactive: 0.165; in assay [3], inactive: -0.053. In addition, the log2 fold change in [4] is inactive: -0.091; in assay [5], inactive: -0.066; in the assay with tipifarnib, inactive: 0.105; with mubritinib it was inactive: -0.029.

Regarding HNRNPU (UniProt Q00839), the log2 fold change with bafetinib is inactive: 0.126; in [1], inactive: 0.012; in the assay with nilotinib, inactive: -0.104; in assay [2] it was inactive: -0.077; with dasatinib, inactive: 0.009; in assay [3], inactive: 0.073. For the same target, the log2 fold change in [4] was inactive: -0.273; in [5], inactive: 0.002; with tipifarnib it was inactive: 0.038; in the assay with mubritinib, inactive: -0.239.

As to HSD17B12 (UniProt Q53GQ0), the log2 fold change with bafetinib is inactive: 0.067; in assay [1], inactive: -0.039; with nilotinib it was inactive: 0.184; in [2], inactive: -0.039; with dasatinib it was inactive: -0.095; in [3], inactive: 0.002. For the same target, the log2 fold change was inactive: 0.092 in assay [4], inactive: -0.02 in [5], inactive: 0.089 in the assay with tipifarnib and inactive: -0.018 in the assay with mubritinib.

In the case of HSPA14 (UniProt Q0VDF9), the log2 fold change is inactive: 0.012 with bafetinib; inactive: 0.029 in [1]; inactive: -0.138 in the assay with nilotinib; inactive: -0.071 in [2]; inactive: -0.127 in the assay with dasatinib; inactive: 0.006 in assay [3]. Also, the log2 fold change in assay [4] is inactive: 0.013; in [5], inactive: -0.046; in the assay with tipifarnib, inactive: -0.113; with mubritinib, inactive: -0.058.

For the target HLTF (UniProt Q14527), the log2 fold change in the assay with bafetinib was inactive: -0.003; in assay [1], inactive: 0.017; with nilotinib, inactive: 0.099; in [2] it was inactive: -0.193; with dasatinib, inactive: -0.035; in assay [3], inactive: 0.015. For the same target, the log2 fold change in assay [4] was inactive: -0.035; in assay [5], inactive: -0.01; with tipifarnib it was inactive: 0.007; with mubritinib, inactive: 0.051.

With HMGN4 (UniProt O00479), the log2 fold change with bafetinib was inactive: 0.061; in assay [1], inactive: 0.135; with nilotinib, inactive: 0.249; in [2] it was inactive: -0.131; with dasatinib, inactive: 0.007; in assay [3], inactive: 0.095. Besides, the log2 fold change in [4] is inactive: 0.104; in assay [5] it was inactive: -0.111; with tipifarnib, inactive: -0.055; with mubritinib, inactive: -0.07.

Take HMMR isoform 3 (UniProt O75330): the log2 fold change in the assay with bafetinib was inactive: 0.008; in assay [1], inactive: 0.053; with nilotinib, inactive: -0.069; in assay [2] it was inactive: -0.065; with dasatinib it was inactive: -0.083; in assay [3], inactive: 0.007. The log2 fold change in [4] is inactive: 0; in assay [5], inactive: -0.019; with tipifarnib it was inactive: -0.041; with mubritinib, inactive: 0.04.
